Among the data in article PMC9723594 are binding values, retold here.

Sequences of proteins named here, by UniProt entry; tags and fusion partners are left off.
UniProt O55170: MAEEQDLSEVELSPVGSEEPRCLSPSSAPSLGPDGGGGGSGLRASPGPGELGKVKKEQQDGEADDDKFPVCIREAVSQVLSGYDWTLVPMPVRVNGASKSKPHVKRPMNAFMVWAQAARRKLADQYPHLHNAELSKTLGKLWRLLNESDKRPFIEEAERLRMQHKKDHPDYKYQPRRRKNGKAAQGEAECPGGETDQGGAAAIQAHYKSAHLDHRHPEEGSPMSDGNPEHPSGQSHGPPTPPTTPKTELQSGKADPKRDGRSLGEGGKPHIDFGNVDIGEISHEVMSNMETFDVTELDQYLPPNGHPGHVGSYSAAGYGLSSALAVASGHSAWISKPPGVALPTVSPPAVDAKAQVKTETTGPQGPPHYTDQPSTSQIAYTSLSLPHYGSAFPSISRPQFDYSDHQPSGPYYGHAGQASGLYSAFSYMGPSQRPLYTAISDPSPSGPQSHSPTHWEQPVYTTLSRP
UniProt Q9JJZ6: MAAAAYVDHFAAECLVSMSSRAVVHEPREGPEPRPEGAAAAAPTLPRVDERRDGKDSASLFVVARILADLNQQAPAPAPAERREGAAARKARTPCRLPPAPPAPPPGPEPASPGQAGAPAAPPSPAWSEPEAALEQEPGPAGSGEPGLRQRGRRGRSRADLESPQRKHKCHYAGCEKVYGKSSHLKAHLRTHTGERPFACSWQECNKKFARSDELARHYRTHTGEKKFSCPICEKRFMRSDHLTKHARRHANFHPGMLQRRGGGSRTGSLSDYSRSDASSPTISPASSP
UniProt O35739: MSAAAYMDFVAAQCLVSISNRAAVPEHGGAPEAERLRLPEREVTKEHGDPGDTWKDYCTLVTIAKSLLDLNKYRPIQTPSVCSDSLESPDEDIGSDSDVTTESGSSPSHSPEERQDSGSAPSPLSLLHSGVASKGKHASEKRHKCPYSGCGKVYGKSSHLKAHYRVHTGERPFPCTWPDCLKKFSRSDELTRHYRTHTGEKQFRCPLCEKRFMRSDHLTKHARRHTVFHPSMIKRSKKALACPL
UniProt Q04888: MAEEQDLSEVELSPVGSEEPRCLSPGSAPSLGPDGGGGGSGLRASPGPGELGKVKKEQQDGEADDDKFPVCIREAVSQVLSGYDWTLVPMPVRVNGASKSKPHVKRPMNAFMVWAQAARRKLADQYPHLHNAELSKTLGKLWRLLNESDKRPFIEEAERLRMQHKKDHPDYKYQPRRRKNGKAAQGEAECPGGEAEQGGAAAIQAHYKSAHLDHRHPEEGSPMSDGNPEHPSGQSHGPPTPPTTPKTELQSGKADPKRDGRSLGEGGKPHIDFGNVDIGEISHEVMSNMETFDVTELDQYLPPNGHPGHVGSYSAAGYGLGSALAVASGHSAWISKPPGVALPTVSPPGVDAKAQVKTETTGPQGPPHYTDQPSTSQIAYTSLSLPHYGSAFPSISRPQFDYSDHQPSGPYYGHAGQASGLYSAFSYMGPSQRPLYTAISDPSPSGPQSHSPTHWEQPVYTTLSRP

The target in experiment [1] is SOX10 (UniProt O55170). As to the kind of experiment: co-IP; extracts of HEK293 cells transfected with one protein, the other or both; precipitation with rabbit antisera (anti-SOX10, anti-KLF13, anti-KLF9) or anti-myc-tag monoclonals coupled to protein A sepharose beads; Western blot. A general note: A western blot detects proteins with antibodies after separation by electrophoresis.

The target in experiment [2] is KLF13, endogenous in primary oligodendroglial cells (not stated (endogenous in primary oligodendroglial cells, mouse or rat)) (UniProt Q9JJZ6). As to the kind of experiment: co-IP; endogenous proteins in extracts of primary oligodendroglial cells kept for 3 days or more under differentiating conditions; antisera against KLF9 or KLF13, pre-immune sera as control; Western blot for SOX10.

The target in experiment [3] is KLF9, endogenous in primary oligodendroglial cells (not stated (endogenous in primary oligodendroglial cells, mouse or rat)) (UniProt O35739). The experiment is described as above.
In experiment [4] the target is myc-tagged KLF9 (Krüppel-like factor 9) (mouse) (UniProt O35739). Briefly: co-IP; extracts of HEK293 cells transfected with one protein, the other or both; precipitation with rabbit antisera (anti-SOX10, anti-KLF13, anti-KLF9) or anti-myc-tag monoclonals coupled to protein A sepharose beads; Western blot.
The target in experiment [5] is KLF13 (Krüppel-like factor 13) (mouse) (UniProt Q9JJZ6). The experiment is described as above.

No constants are given. Whether binding was seen depends on the method and setting. Binding seen in cells or lysates may run through a third protein. Some binding calls cover weakened binding; strength is not graded here.

In the case of “KLF13 (Krüppel-like factor 13) (from UniProt Q9JJZ6 1-289)”, in experiment [1], the binding result is recorded as “binds”.

With “myc-tagged KLF9 (Krüppel-like factor 9) (from UniProt O35739 1-244)”, the binding entry in experiment [1] was “binds”.

Regarding “SOX10, endogenous in primary oligodendroglial cells (from UniProt Q04888 1-466)”, the binding entry in experiment [2] and in experiment [3] was “binds” throughout.

SOX10 (from UniProt O55170 1-466): the binding result in experiment [4] and in experiment [5] was “binds” in each case.
